# From the supplement of paper PMC3334620
# The full ranking holds about 33,000 sequences; the median of “E-score (-0.5 to 0.5)” is about -0.0034, and the highest 2% start at about 0.25. The list shows a part of the results.
# Biological target: T1, Yap3 (UniProt P38749)
# T1 sequence: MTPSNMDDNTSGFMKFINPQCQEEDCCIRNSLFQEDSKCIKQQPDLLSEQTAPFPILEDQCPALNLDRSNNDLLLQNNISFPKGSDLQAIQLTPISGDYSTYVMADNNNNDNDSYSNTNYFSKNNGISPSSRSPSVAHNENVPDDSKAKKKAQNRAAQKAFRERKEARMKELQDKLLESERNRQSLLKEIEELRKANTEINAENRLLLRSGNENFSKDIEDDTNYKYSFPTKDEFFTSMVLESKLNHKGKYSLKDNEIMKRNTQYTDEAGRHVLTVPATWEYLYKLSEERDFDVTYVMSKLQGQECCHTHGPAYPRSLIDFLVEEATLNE
# Assay: PBM E-score (8-mer binding enrichment) (E-score (-0.5 to 0.5)); higher = stronger / more preferred TF binding
# Conditions: protein concentration: 100 nM; construct: GST-full length
# Procedure, shortened: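 For each ungapped eight-base word taken together with its reverse complement, the Universal PBM Analysis Suite assigned an E-score. Binding data came from GST-tagged yeast transcription factors, applied at about 100-200 nM, on universal all-10-mer Agilent arrays made double-stranded by primer extension. Fluorescent anti-GST marked bound protein, and scans were normalised with masliner.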
row,Sequence,PBM E-score
1,AGAAGCTA,-0.181
2,ACCTTAAG,-0.00128
3,CCCCGAAA,-0.0453
4,AATCGTCG,0.0821
5,ACGAAAGC,0.045
6,ATGAACCG,0.063
7,TAATCACA,0.154
8,GGACTCAC,-0.198
9,CCACAGAC,-0.129
10,ACCGGTGG,-0.288
11,CGACCCCC,-0.399
12,GAGGTCAC,-0.177
13,GCACTTCC,-0.0999
14,TAGGCAAA,-0.00875
15,AAAGGCGG,-0.0373
16,ATTCCCAC,0.0355
17,AATGAGGC,-0.149
18,GCAATCAC,-0.00269
19,ACCGATTA,0.179
20,AATAGGTC,0.0829
21,ACTCGCTA,0.0963
22,AATACCTG,0.06
23,CCTCCGAA,-0.202
24,GAACAGGC,-0.0897
25,CTGATTGA,0.0155

row,Sequence,PBM E-score
1,AATAGCGA,0.24
2,AAACCACT,0.0898
3,GCCCGGAC,-0.272
4,ACAGAACC,-0.119
5,TGTATAAA,0.211
6,AAACCCTC,-0.0466
7,AACGCTTG,-0.109
8,TATCAAGA,0.172
9,ACCTGATC,-0.142
10,ACTCGGAG,-0.129
11,CAGGCGCG,-0.0848
12,CCGCTCCG,-0.107
13,AACGATGA,0.0645
14,GTTTACGA,-0.0753
15,ACCCATAT,0.143
16,CGAGAGCG,-0.202
17,CAGCAACC,-0.0263
18,TACTATAA,0.266
19,ATGTACGC,0.0394
20,ACGATATG,0.0818
21,GCCCGCAC,0.0318
22,ACATTTAA,0.221
23,ACGAGAAC,0.118
24,CTCTTAAC,0.024
25,GCACGGTA,-0.18

row,Sequence,PBM E-score
1,CTGACTCC,-0.16
2,AAACTACA,0.189
3,CATCGAAC,0.0176
4,ACGGCAGA,0.122
5,ACTGATCG,0.00838
6,GCCTGGGA,-0.282
7,CGGGATAC,-0.013
8,ATAATGCG,0.182
9,GGCTCCCC,-0.361
10,AACTTAGT,0.0299
11,ATCATGTG,0.0322
12,AGTTCCTA,0.0691
13,ATACGAAC,0.189
14,GAGGGGGA,-0.233
15,AGCACCCA,-0.217
16,CTCCCAGA,-0.157
17,ACAGAAGC,0.154
18,GCCATGGC,-0.191
19,GAGAAGTA,0.0274
20,CGGGGAGC,-0.167
21,ATTGCACA,0.141
22,CGCACGAC,-0.0895
23,CGTCACAG,0.126
24,ATAAGCGA,0.122
25,ACGCACAC,0.0549

row,Sequence,PBM E-score
1,AGTGTGAT,0.15
2,CCGACAAC,-0.068
3,AATGAGAA,0.111
4,CCTGTACC,-0.192
5,ATTTCGTC,0.198
6,TATAACAA,0.265
7,CCCGAGGG,-0.181
8,GTGAAGTA,-0.0249
9,AGGTGGGC,-0.169
10,AACCGTTC,0.0457
11,ACCCACCT,-0.176
12,AGTCGAAT,-0.119
13,CCTGTCAC,-0.119
14,CCTCCACA,0.0441
15,CAAGTTGC,0.124
16,GAACAGGA,0.0208
17,AGTGATAC,0.0972
18,ATGTCTAA,0.113
19,GTTTAACA,-0.0384
20,AGTACCTC,-0.158
21,GTGCCTTA,0.0418
22,AAGTCACA,0.0519
23,CAAACGCC,0.046
24,CAGACGAC,-0.13
25,ACGTTAGA,0.199

row,Sequence,PBM E-score
1,ATAACCAC,0.112
2,GTCACGAC,0.0514
3,CCCAACAG,-0.193
4,ATTGGAGC,0.217
5,AAATCAGT,0.0169
6,CGCCGTTA,-0.00062
7,GGTTCCCA,-0.0281
8,GGAATGAC,-0.0484
9,GATATCGA,0.0754
10,ATCCGCCA,-0.1
11,GAACCAAC,0.00249
12,GATCTCCA,-0.0538
13,ACTCTTAG,-0.259
14,AAGAATCT,-0.122
15,GGGCCAGA,-0.307
16,GACACCCA,-0.184
17,ACGTTCAT,-0.135
18,GGCTTCCC,-0.127
19,AGGTCGAT,0.167
20,GATACGAC,0.0825
21,TCTCCTAA,0.0355
22,AAGCCTCA,-0.231
23,ACAACTAG,-0.109
24,GGTTCCAA,0.09
25,AACAGCGC,-0.061

row,Sequence,PBM E-score
1,AATGCTAT,0.148
2,GGGCTAGA,-0.105
3,AAACCGTC,-0.101
4,ACGTAAAC,-0.0817
5,TACTTCGA,0.138
6,TCGAAAAA,0.237
7,AGGCATGA,-0.135
8,ACTCCTCC,-0.0812
9,CGATTTGA,0.0627
10,GGGTGGAC,-0.169
11,GACCCCGA,-0.0931
12,AGCTGCAA,-0.193
13,ACCGACTA,-0.308
14,GGAGCTTA,-0.0908
15,GGGCCTCA,-0.257
16,ACTTTATC,0.169
17,GAACTCCC,-0.104
18,AATAGGCT,0.0204
19,AAGACCCG,-0.121
20,GGGATAAC,0.0059
21,CCGAGCGA,-0.0663
22,CAAATGCC,-0.0918
23,GTCGGCAA,-0.0657
24,CCTGTTGC,-0.00854
25,GGGTCTCA,-0.138

row,Sequence,PBM E-score
1,CAGCGCCC,-0.264
2,CTAATTGC,0.0288
3,CCAAGATC,-0.127
4,ATCTTCCC,-0.0179
5,AAATGTCT,0.134
6,AATGAGCC,-0.238
7,GTCAATCA,-0.0169
8,CGCGTCCG,-0.0235
9,ACGATGAC,-0.122
10,GCCCGACA,0.0931
11,AACCGATG,-0.132
12,CATGCAGC,-0.153
13,AGAGAGGG,-0.347
14,GGAGTGCC,-0.202
15,CATAAGAG,-0.071
16,AGAAGCTC,-0.193
17,AACGGTGG,-0.105
18,ACCGGGCA,-0.164
19,ATGCCTCG,0.0974
20,AAAGCTGC,0.018
21,CGCTCCAA,-0.141
22,ACGTTTCC,-0.102
23,CGTCCGCA,-0.18
24,GATGATTA,0.0319
25,CCCCGAGA,-0.148

# As entered above:
# Under PBM E-score, AATAGCGA is entered as 0.24
# Under PBM E-score, AATGAGGC is entered as -0.149
# Under PBM E-score, CCTGTCAC is entered as -0.119

# Continued:

row,Sequence,PBM E-score
1,AACACTTG,0.0146
2,GCCTACAA,0.00486
3,TCGAGGAA,0.025
4,GTTCTAAA,0.0261
5,CGGAGTTA,-0.0186
6,ACTGCACG,-0.119
7,CGCTCGTC,-0.111
8,AATAACGC,-0.0289
9,GCTTATCA,0.0728
10,ACAACATC,0.0853
11,TATATTGA,0.228
12,ATCCGATC,0.102
13,CTAAAAGA,-0.0682
14,AACGGCCT,-0.153
15,CCTAAGTA,0.112
16,AGTTAGAA,0.0548
17,CCGGTGTA,-0.0878
18,CCCTTAAG,-0.0249
19,AGTCTATC,-0.0771
20,CTCGTGGC,-0.159
21,CCCCGATA,-0.116
22,GGTGAACC,-0.0423
23,AGGCCTGA,-0.0433
24,AGTGGCTG,-0.0211
25,GAGGAGTA,0.01

row,Sequence,PBM E-score
1,GCAACGTA,0.124
2,CACACTTA,0.0527
3,AGCACTAT,0.0238
4,CTATGTAA,0.104
5,ATCGAATG,0.189
6,CGATCCAA,-0.158
7,GGATCATA,-0.0339
8,CCATATAG,0.0214
9,TAGGTGGA,0.0552
10,CGTATGGA,0.0201
11,CGACCAAA,0.174
12,GTTCTCCA,0.033
13,AACTAGTT,0.0859
14,AAATATAC,0.19
15,ATACCGAC,-0.075
16,ATTAACTA,0.229
17,CCAACTGG,0.00781
18,GGCTAACA,-0.0559
19,ACTCGTAC,-0.0614

# Already shown: an excerpt of the list.
row,Sequence,PBM E-score
12,AGTCGAAT,-0.119
13,CCTGTCAC,-0.119
14,CCTCCACA,0.0441
15,CAAGTTGC,0.124
